# Results as given in publication PMC12561453, “Synthesis and Structure–Activity Relationship Study of 2-(amino)quinazolin-4(3H)-one Derivatives as Potential Inhibitors of Methicillin-Resistant Staphylococcus aureus (MRSA)” (Antibiotics, 2025).
# Where “and” joins values, the source holds several entries; their conditions need not be identical. Equal entries are not always repeated.
# How the values were obtained:
# [1] = system: HepG2 cells; experiment: In vitro cytotoxicity, HepG2 viability (resazurin); type: cell-based, human; conditions: ratio of IC50 in HepG2 cells to MIC50 against JE2
# Description: The in vitro cytotoxicity of the compounds was evaluated by measuring the viability of HepG2 cells, a human liver cell line, following treatment in a dose–response manner, as previously described. […] The efficacy window was calculated as the ratio of IC50 in HepG2 cells to MIC50 against JE2.
# To test cytotoxicity with compounds, the human liver cell line HepG2 (ATCC #HB-8065) was used for the assay. HepG2 was cultured in DMEM with 10% fetal bovine serum (FBS) in a 96-well microplate at 37 °C and 5% CO2. HepG2 cells were seeded at a final density of 5 × 10^4 cells/well, and DMEM-containing diluted compounds were added and incubated on the plates at 37 °C in 5% CO2 for 24 h. After that, resazurin (final concentration, 0.1 mg/mL) was added to each well and incubated on the plates at 37 °C in 5% CO2 for 2 h. To detect the fluorescence at 530 nm excitation and 590 nm emission, an Ensight multimode plate reader was used (Revvity, Waltham, MA, USA).
# [2] = system: S. aureus USA300 JE2 expressing GFP in H460 cells; type: cell-based, Staphylococcus aureus; conditions: Table 2, H460 infection model; text: IC50 HepG2/MIC50 ex vivo
# Text: Staphylococcus aureus, including MRSA, can invade host cells and replicate intracellularly, which complicates treatment with current therapies. To evaluate the intracellular antibacterial activities of the selected compounds, the fifteen compounds tested for cytotoxicity were further assessed using a cell infection model based on H460 human lung epithelial cells, which mimic MRSA-mediated pneumonia. H460 cells were infected with the USA300 JE2 expressing green fluorescent protein (GFP) and subsequently treated with the compounds in a dose–response manner, along with three reference antibiotics: vancomycin, linezolid, and erythromycin. After 24 h of incubation, bacterial loads were quantified by measuring GFP fluorescence in each well. MIC50 values determined in the H460 infection model (MIC50 ex vivo) were generally higher than those obtained from the in vitro tests, likely due to either limited compound penetration into host cells or reduced antibacterial effect of the compounds against intracellular bacteria (Figure 3, Table 2). […] These findings underscore the potential of compound 6y as a promising lead for further development as a novel antistaphylococcal agent.
# To see the ex vivo antimicrobial activity of the compound, the human lung carcinoma cell line H460 (ATCC #HTB-177) was used. The H460 cells were cultured in RPMI 1640 medium with 10% fetal bovine serum (FBS) and in a 96-well microplate at 37 °C and 5% CO2. Cell lines were cultured for 2 days, until they reached full confluence in the well. S. aureus (USA300-containing and pCM29-encoding GFP) was cultured in CAMHB with 10 µg/mL of chloramphenicol, and bacterial cells were harvested. After washing the bacterial cells with phosphate-buffered saline (PBS) and suspending them in RPMI, infected H460 cells with S. aureus (1 × 10^7 CFU) and incubated them for 2.5 h. Samples were washed three times with PBS. Then, cells were treated with gentamicin (50 µg/mL of gentamicin in RPMI) and incubated for 1 h. Samples were washed with PBS, RPMI-containing diluted compounds were added, and then they were incubated at 37 °C in 5% CO2 for 24 h. To detect the Green fluorescent protein (GFP) signal, an Ensight multimode plate reader and Opera Phenix Plus (Revvity, Waltham, MA, USA) were used.
# Ex vivo infection model images were generated using the Opera Phenix Plus high-content imaging system. Images were obtained by a confocal microscope with a 20× water objective lens. To detect the bacteria fluorescence signal (GFP), the Alexa 488 channel (488 nm laser/500–550 filter, Thermo Fisher Scientific, Waltham, MA, USA) was used, and the brightfield channel was used for H460 cell images.
# Figure 3 Antibacterial activities of 2-(amino)quinazolin-4(3H)-one derivatives in the H460 infection model. H460 cells were infected with S. aureus USA300 JE strain expressing GFP, followed by treatment with serial dilutions of 2-(amino)quinazolin-4(3H)-one derivatives. After incubation at 37 °C for 24 h with 5% CO2, fluorescence signals of the bacteria were detected at 488 nm/510 nm using a multilabel plate reader.
SMILES,Efficacy Window (IC50 HepG2/MIC50 USA300) [1],Efficacy Window (IC50 HepG2/MIC50 USA300) [2]
"O=c1[nH]c(Nc2cccc(C(F)(F)F)c2)nc2cc(Cl)ccc12 [6r, 7-Chloro-2-((3-(trifluoromethyl)phenyl)amino)quinazolin-4(3H)-one]",6.9,0.4
"O=c1[nH]c(Nc2cc(Cl)cc(Cl)c2)nc2ccccc12 [6j, 2-((3,5-Dichlorophenyl)amino)quinazolin-4(3H)-one]",15.7,0.8
"O=c1[nH]c(Nc2cc(Cl)cc(Cl)c2)nc2c(Br)cc(Br)cc12 [6f, 6,8-Dibromo-2-((3,5-dichlorophenyl)amino)quinazolin-4(3H)-one]",8.3,1.1
"O=c1[nH]c(Nc2cc(Cl)cc(Cl)c2)nc2cc([N+](=O)[O-])ccc12 [6e, 2-((3,5-Dichlorophenyl)amino)-7-nitroquinazolin-4(3H)-one]",5.9,0.1
"O=c1[nH]c(Nc2cc(Cl)cc(Cl)c2)nc2c(Cl)cc(Cl)cc12 [6i, 6,8-Dichloro-2-((3,5-dichlorophenyl)amino)quinazolin-4(3H)-one]",21.8,1.5
"O=c1[nH]c(Nc2cc(Cl)cc(Cl)c2)nc2cc(Cl)ccc12 [6l, 7-Chloro-2-((3,5-dichlorophenyl)amino)quinazolin-4(3H)-one]",101.3,
"O=c1[nH]c(NCc2ccc(Cl)cc2Cl)nc2cc(Cl)ccc12 [6x, 7-Chloro-2-((2,4-dichlorobenzyl)amino)quinazolin-4(3H)-one]",8.8,0.9
"O=c1[nH]c(Nc2cc(F)cc(F)c2)nc2cc(Cl)ccc12 [6q, 7-Chloro-2-((3,5-difluorophenyl)amino)quinazolin-4(3H)-one]",39.2,
"O=c1[nH]c(Nc2cc(Cl)cc(Cl)c2)nc2cc(Cl)c(Cl)cc12 [6h, 6,7-Dichloro-2-((3,5-dichlorophenyl)amino)quinazolin-4(3H)-one]",30.3,
"O=c1[nH]c(Nc2cc(Cl)cc(Cl)c2)nc2cc(F)c(F)cc12 [6g, 2-((3,5-Dichlorophenyl)amino)-6,7-difluoroquinazolin-4(3H)-one]",8.9,0.5
"O=c1[nH]c(Nc2cccc(Cl)c2)nc2cc(Cl)ccc12 [6u, 7-Chloro-2-((3-chlorophenyl)amino)quinazolin-4(3H)-one]",4.0,0.2
"O=c1[nH]c(Nc2ccc(Cl)cc2)nc2cc(Cl)ccc12 [6v, 7-Chloro-2-((4-chlorophenyl)amino)quinazolin-4(3H)-one]",15.0,1.1
"O=c1[nH]c(Nc2cc(Cl)cc(Cl)c2)nc2cc(C(F)(F)F)ccc12 [6k, 2-((3,5-Dichlorophenyl)amino)-7-(trifluoromethyl)quinazolin-4(3H)-one]",39.0,1.7
"O=c1[nH]c(Nc2cccc(F)c2)nc2cc(Cl)ccc12 [6n, 7-Chloro-2-((3-fluorophenyl)amino)quinazolin-4(3H)-one]",6.6,0.4
"O=c1[nH]c(NCc2ccc(F)c(F)c2)nc2cc(Cl)ccc12 [6y, 7-Chloro-2-((3,4-difluorobenzyl)amino)quinazolin-4(3H)-one]",~ 885 and 885.2,
